Assay results as given in PMC3422339.
No constants are given. Whether binding was seen depends on the method and setting. For some of these results: Binding seen in cells or lysates may run through a third protein. Some results given as binding are weak or reduced against the parent protein; the word gives no strength. For some of these results: Tags and fused reporters may be left off the sequences shown.

How the values were obtained:
[1] = target: T1, AtNF-YB2 (Arabidopsis thaliana) (UniProt Q9FGJ3); test: two-hybrid; liquid LacZ assay (beta-galactosidase, ONPG, Miller units), semi-quantitative; AtNF-YB (DBD) and AtNF-YC (AD) configuration; control AtNF-YB GAL4-DBD with empty GAL4-AD
T1 sequence: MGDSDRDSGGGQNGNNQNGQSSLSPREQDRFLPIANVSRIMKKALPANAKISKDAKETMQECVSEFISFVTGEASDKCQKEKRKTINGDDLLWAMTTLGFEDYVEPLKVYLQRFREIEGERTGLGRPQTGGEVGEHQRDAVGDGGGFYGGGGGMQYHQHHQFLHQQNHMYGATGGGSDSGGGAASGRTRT

[2] = target: T2, AtNF-YB3 (Arabidopsis thaliana) (UniProt O23310); test: as above
T2 sequence: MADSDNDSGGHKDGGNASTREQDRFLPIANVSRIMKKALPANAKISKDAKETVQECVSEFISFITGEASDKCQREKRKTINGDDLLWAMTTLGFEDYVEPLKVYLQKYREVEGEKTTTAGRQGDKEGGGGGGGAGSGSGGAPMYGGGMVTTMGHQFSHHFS

[3] = target: T3, AtNF-YB7 (Arabidopsis thaliana) (UniProt Q9SIT9); test: as above
T3 sequence: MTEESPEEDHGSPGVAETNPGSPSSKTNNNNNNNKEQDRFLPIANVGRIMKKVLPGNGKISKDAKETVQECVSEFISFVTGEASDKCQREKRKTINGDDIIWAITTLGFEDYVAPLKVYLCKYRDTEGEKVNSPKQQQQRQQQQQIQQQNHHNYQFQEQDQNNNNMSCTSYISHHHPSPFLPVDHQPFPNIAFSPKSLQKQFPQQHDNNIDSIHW

[4] = target: T4, AtNF-YB10 (Arabidopsis thaliana) (UniProt Q67XJ2); test: as above
T4 sequence: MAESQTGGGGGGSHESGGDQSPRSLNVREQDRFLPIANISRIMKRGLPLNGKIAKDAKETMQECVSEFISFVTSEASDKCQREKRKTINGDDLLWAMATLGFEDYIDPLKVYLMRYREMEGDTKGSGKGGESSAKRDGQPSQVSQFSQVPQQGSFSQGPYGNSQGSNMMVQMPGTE

[5] = target: T1, AtNF-YB2 (Arabidopsis thaliana); test: two-hybrid; colony (plate) assay, Figure 1B as the text tells it: AtNF-YBs fused to GAL4 DBD (bait), AtNF-YCs to GAL4 AD (prey); S. cerevisiae PJ69-4A diploids; YSD lacking Leu, Trp and Ade or His with 50 mM 3-aminotriazole; 28°C, 4 days; read-outs His, Ade, LacZ
[6] = target: T2, AtNF-YB3 (Arabidopsis thaliana); test: as above
[7] = target: T4, AtNF-YB10 (Arabidopsis thaliana); test: as above
[8] = target: T5, AtNF-YC6 (Arabidopsis thaliana) (UniProt Q9FGP7); test: two-hybrid; colony (plate) assay, Figure 1A as the text tells it: AtNF-YCs fused to GAL4 DBD (bait), AtNF-YBs to GAL4 AD (prey); S. cerevisiae PJ69-4A diploids; YSD lacking Leu, Trp and Ade or His with 50 mM 3-aminotriazole; 28°C, 4 days; read-outs His, Ade, LacZ
T5 sequence: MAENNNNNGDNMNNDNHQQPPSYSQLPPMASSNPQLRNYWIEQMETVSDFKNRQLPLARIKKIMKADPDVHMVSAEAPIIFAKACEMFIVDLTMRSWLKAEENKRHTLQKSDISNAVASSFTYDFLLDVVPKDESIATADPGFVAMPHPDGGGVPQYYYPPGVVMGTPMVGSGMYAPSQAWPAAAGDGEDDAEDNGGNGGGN

[9] = target: T6, 6His-LEC1/AtNF-YB9 HFD (AA 56-148) (Arabidopsis thaliana) (UniProt Q9SFD8); test: pull-down; co-expression of the HFDs in E. coli BL21(DE3); Ni-chelate affinity co-purification from the soluble extract by the 6His tag of the AtNF-YB; buffer A (10 mM Tris pH 8.0, 400 mM NaCl, 2 mM MgCl2, 5 mM imidazole), eluted with 100 mM imidazole; SDS-PAGE, Coomassie
T6 sequence: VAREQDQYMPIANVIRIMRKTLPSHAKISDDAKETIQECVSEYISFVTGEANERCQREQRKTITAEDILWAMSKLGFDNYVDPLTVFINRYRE

[10] = target: T7, His-tagged recombinant L1L/AtNF-YB6 (Arabidopsis thaliana) (UniProt Q84W66); test: co-renaturation of denatured subunits; single His-tagged HFD subunits from E. coli inclusion bodies, denatured and renatured when mixed together; both purified
T7 sequence: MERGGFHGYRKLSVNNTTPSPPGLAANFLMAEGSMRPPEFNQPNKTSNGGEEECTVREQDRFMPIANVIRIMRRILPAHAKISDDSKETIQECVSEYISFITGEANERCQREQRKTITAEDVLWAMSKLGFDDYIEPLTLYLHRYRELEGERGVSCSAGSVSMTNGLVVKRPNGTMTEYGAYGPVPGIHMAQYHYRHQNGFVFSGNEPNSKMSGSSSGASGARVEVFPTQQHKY

B1: AtNF-YC6 (protein, UniProt Q9FGP7 1-202)
chain: T5 sequence
In the case of B1, the binding [1] is reported as “binds weakly”, the binding [2] is reported as “binds weakly” and the binding [3] is reported as “binds weakly”. For the same binder, the binding [4] was “binds weakly”, the binding [5] was “binds weakly” and the binding [6] was “binds weakly”.

B2: AtNF-YC3 (protein, UniProt Q9ZVL3 1-217)
chain: MDQQGQSSAMNYGSNPYQTNAMTTTPTGSDHPAYHQIHQQQQQQLTQQLQSFWETQFKEIEKTTDFKNHSLPLARIKKIMKADEDVRMISAEAPVVFARACEMFILELTLRSWNHTEENKRRTLQKNDIAAAVTRTDIFDFLVDIVPREDLRDEVLGGVGAEAATAAGYPYGYLPPGTAPIGNPGMVMGNPGAYPPNPYMGQPMWQQPGPEQQDPDN
For B2, the binding [4] was “binds weakly”, the binding [5] was “binds” and the binding [6] was “binds”. The binding [7] was “binds weakly”.

B3: AtNF-YC4 (protein, UniProt Q9FMV5 1-250)
chain: MDNNNNNNNQQPPPTSVYPPGSAVTTVIPPPPSGSASIVTGGGATYHHLLQQQQQQLQMFWTYQRQEIEQVNDFKNHQLPLARIKKIMKADEDVRMISAEAPILFAKACELFILELTIRSWLHAEENKRRTLQKNDIAAAITRTDIFDFLVDIVPREEIKEEEDAASALGGGGMVAPAASGVPYYYPPMGQPAVPGGMMIGRPAMDPSGVYAQPPSQAWQSVWQNSAGGGDDVSYGSGGSSGHGNLDSQG
For B3, the binding [5] was “binds” and the binding [6] was “binds”.

B4: AtNF-YC9 (protein, UniProt Q8L4B2 1-231)
chain: MDQQDHGQSGAMNYGTNPYQTNPMSTTAATVAGGAAQPGQLAFHQIHQQQQQQQLAQQLQAFWENQFKEIEKTTDFKNHSLPLARIKKIMKADEDVRMISAEAPVVFARACEMFILELTLRSWNHTEENKRRTLQKNDIAAAVTRTDIFDFLVDIVPREDLRDEVLGSIPRGTVPEAAAAGYPYGYLPAGTAPIGNPGMVMGNPGGAYPPNPYMGQPMWQQQAPDQPDQEN
For B4, the binding [5] was “binds” and the binding [6] was “binds”.

B5: AtNF-YC2 (protein, UniProt Q8LCG7 1-199)
chain: MEQSEEGQQQQQQGVMDYVPPHAYQSGPVNAASHMAFQQAHHFHHHHQQQQQQQLQMFWANQMQEIEHTTDFKNHTLPLARIKKIMKADEDVRMISAEAPVIFAKACEMFILELTLRAWIHTEENKRRTLQKNDIAAAISRTDVFDFLVDIIPRDELKEEGLGVTKGTIPSVVGSPPYYYLQQQGMMQHWPQEQHPDES
In the case of B5, the binding [1] is reported as “binds weakly”, the binding [2] is reported as “binds weakly” and the binding [5] is reported as “binds weakly”. The binding [6] was “binds weakly”.

B6: AtNF-YB2 (protein, UniProt Q9FGJ3 1-190)
chain: T1 sequence
For B6, the binding [8] was “binds weakly”.

B7: AtNF-YC3 HFD (AA 55-148), untagged (domain or fragment, UniProt Q9ZVL3 55-148)
chain: TQFKEIEKTTDFKNHSLPLARIKKIMKADEDVRMISAEAPVVFARACEMFILELTLRSWNHTEENKRRTLQKNDIAAAVTRTDIFDFLVDIVPR
For B7, the binding [9] was “binds”.

B8: His-tagged recombinant AtNF-YC3 (protein, UniProt Q9ZVL3 1-217)
chain: B2 chain
With B8 the binding [10] was “binds”.

B9: His-tagged recombinant AtNF-YC7 (protein, UniProt Q9FGP8 1-212)
chain: MEENNGNNNHYLPQPSSSQLPPPPLYYQSMPLPSYSLPLPYSPQMRNYWIAQMGNATDVKHHAFPLTRIKKIMKSNPEVNMVTAEAPVLISKACEMLILDLTMRSWLHTVEGGRQTLKRSDTLTRSDISAATTRSFKFTFLGDVVPRDPSVVTDDPVLHPDGEVLPPGTVIGYPVFDCNGVYASPPQMQEWPAVPGDGEEAAGEIGGSSGGN
With B9 the binding [10] was “binds”.
